## Screening data, single-dose tests

The chains behind the UniProt entries cited, without tags or fusion partners.
UniProt P9WPC5, whole entry: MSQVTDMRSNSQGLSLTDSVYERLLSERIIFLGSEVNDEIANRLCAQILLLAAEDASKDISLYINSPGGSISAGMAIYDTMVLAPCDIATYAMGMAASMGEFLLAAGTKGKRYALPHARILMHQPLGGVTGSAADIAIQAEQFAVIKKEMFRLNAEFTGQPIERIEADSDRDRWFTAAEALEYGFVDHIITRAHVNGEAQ
UniProt P9WPC3, whole entry partner: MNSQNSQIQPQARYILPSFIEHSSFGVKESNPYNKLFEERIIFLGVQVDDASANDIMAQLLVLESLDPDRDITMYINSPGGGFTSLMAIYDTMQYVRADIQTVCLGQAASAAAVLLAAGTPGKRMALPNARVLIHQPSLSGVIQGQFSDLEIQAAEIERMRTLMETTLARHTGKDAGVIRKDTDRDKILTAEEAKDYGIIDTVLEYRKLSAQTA

From ChEMBL document CHEMBL3988442, “University of Dundee, Small-Polar-MMV Screening Library” (2021).

A: 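Assay of Toxoplasma gondii numbers, read through their beta-galactosidase reporter with a colour substrate. Concentration: 10 µM. The record gives no direction; the compounds picked for IC50 retests had high values, so higher reads as fewer parasites. About 67,000 compounds were tested under these conditions; 0.38% (about 260) showed 50% or more at least once.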
B: 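ClpP1P2, Mycobacterium tuberculosis (UniProt P9WPC5 and UniProt P9WPC3). Protease assay of ClpP1P2, read by the AMC dye that it sets free. Tested at 50 µM. Direction is inferred from only a few compounds that gave an IC50; most scored high, so higher reads as stronger inhibition. Most other retested compounds had strongly negative values. About 69,000 compounds were tested under these conditions; 0.015% (about 10) showed 50% or more at least once.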
C: 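Cell assay of Leishmania donovani living inside macrophages; the read-out is not stated. Tested at 30 µM. Direction is inferred from retests: higher values go with stronger inhibition. Of about 69,000 compounds tested this way, about 1,000 (1.5%) reached 50% or more in at least one test.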
D: 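Whole-parasite assay of Trypanosoma brucei over 72 hours; the read-out is not stated. Concentration: 30 µM. Higher reads as stronger inhibition (inferred: compounds with an IC50 in retests scored well above the rest). Values scatter widely below zero; nearly all retest evidence comes from the higher of the two concentrations used. Of about 64,000 compounds tested this way, about 940 (1.5%) reached 50% or more in at least one test.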

The filed quantity is “Percent Effect” (%).
The controls that fix the scale are not given in the record; negative values are as filed.
This is an unselected part of the compounds tested.
A dash means the value is not listed here; it may have been measured.

| # | compound | A | B | C | D |
|---|---|---|---|---|---|
| 1 | `Cc1nc(-c2ccc(S(=O)(=O)N3CCC=C(F)C3)cc2)co1` | -6.934% | -12.97% | 14.73% | -4.687% |
| 2 | `CCS(=O)(=O)N1CCC2(CC(=O)N(c3cccc(C)c3)C2)C1` (stereo not drawn) | 7.906% | 1.26% | 5.877% | 17.49% |
| 3 | `COC(=O)N1CCN(c2ncnc3nc(C)cc(C)c23)CC1` | 8.58% | -15.04% | -21.32% | -28.04% |
| 4 | `O=C(CCn1cccn1)NS(=O)(=O)N1CCCc2ccccc21` | 1.658% | 3.987% | 8.091% | -5.463% |
| 5 | `CCOC(=O)C1CC2(CCCCC2)N2CCC(=O)N12` (stereo not drawn) | 11.15% | 2.398% | -3.529% | -30.31% |
| 6 | `Cc1ccn2c(F)c(C(=O)N3CCC4(CCCN(C)C4=O)C3)nc2c1` (stereo not drawn) | 14.65% | -9.653% | 24.79% | -51.9% |
| 7 | `O=C(NC[C@H]1OC[C@@H](NC2COC2)[C@@H]1O)C1CCCC1` | -0.7996% | -9.574% | 16.44% | -1.887% |
| 8 | `Cc1ccc(S(=O)(=O)N2CC[C@@H](O)C2)c(F)c1` | 10.64% | -4.131% | 31% | -14.86% |
| 9 | `COc1cc(C(C)=O)ccc1OCC(=O)c1cccn1C` | -20.42% | 20.23% | 10.21% | -5.612% |
| 10 | `CC(C)OCCC(=O)Nc1cc(C(=O)N(C)C(C)C)ccc1Cl` | 8.914% | 8.443% | -5.703% | -13.07% |
| 11 | `CCn1cc(S(=O)(=O)NCC2(N3CCOCC3)CCCCC2)c(C)n1` | 2.992% | -38.56% | -8.015% | -9.525% |
| 12 | `COCCNC(=O)N1CCCC1COc1ccccc1` (stereo not drawn) | 2.605% | 4.405% | -6.62% | -9.999% |
| 13 | `COc1cccc2c1OCC(C(=O)NCCc1nc3c(s1)CCC3)C2` (stereo not drawn) | 11.51% | -10.84% | 11.07% | -23.46% |
| 14 | `[H][C@]12CCC[C@@H](CN3CCCC3)[C@@]1([H])CN(c1ncccn1)C2` | 1.866% | - | 13.31% | -16.19% |
| 15 | `Cc1noc(C)c1CN(C)Cc1nc(N)c2ccccc2n1` | 5.871% | -0.9376% | 3.181% | -77.23% |
| 16 | `CN(Cc1cnn(C)c1)C(=O)C1COc2ccccc2C1` (stereo not drawn) | 6.859% | -9.925% | 29.88% | 0.3934% |
| 17 | `CCN1CCC2(C=C(C(=O)NC3CC3)c3ccccc32)CC1.O=C(O)C(F)(F)F` | -3.168% | - | 35.49% | 0.2728% |
| 18 | `CC(C)Oc1ncnc2c1CCN(Cc1ccc(F)cc1)CC2.O=C(O)C(F)(F)F` | 12.56% | - | 7.378% | 36.93% |
| 19 | `N#Cc1ccc(N2CCC3(CCC(=O)N3Cc3cccnc3)CC2)nc1.O=C(O)C(F)(F)F.O=C(O)C(F)(F)F` | -22.65% | - | -14.55% | -9.154% |
| 20 | `CC(C)N(Cc1ccccc1)Cc1csc(-c2ncccn2)n1` | 7.436% | 7.43% | -7.207% | -43.3% |
| 21 | `CCn1cnnc1CNC(=O)c1cc(Cl)ccc1OC` | 0.7312% | 4.818% | 28.98% | -0.7304% |
| 22 | `N#CC1COCCN1S(=O)(=O)c1ccc2ccccc2c1` (stereo not drawn) | -0.268% | -2.677% | -8.624% | -17.09% |
| 23 | `C1CC(CN2CCc3c(nnn3CC3CC3)C2COCC2CC2)C1.O=C(O)C(F)(F)F` (stereo not drawn) | 0.2973% | - | 13.11% | 44.1% |
| 24 | `[H][C@@]12CN(c3cccnc3)CC[C@]1([H])CN(c1ncccn1)C2` | -5.18% | - | 19.35% | 34.92% |
| 25 | `Cc1cc(COc2ccc(OC3CCCCNC3=O)cc2)on1` (stereo not drawn) | 4.141% | -16.7% | 14.23% | -18.42% |
| 26 | `Cn1cc(N2C(=O)CC[C@@H]3[C@H]2CCN3CCc2ccccc2)cn1` | - | -5.412% | - | - |
| 27 | `CNC(=O)C(C)(C)N1CCC[C@H]1C(=O)NC1CCCC1` | -1.725% | 4.778% | -20.32% | -40.33% |
| 28 | `NC(=O)NCCC(=O)N1CCC(c2cc(Cc3ccccc3)n[nH]2)CC1` | 18.18% | -17.46% | -20.51% | -5.24% |
| 29 | `Cc1nn(C)c(N(C)C)c1CNC1CCc2c(Cl)cccc21` (stereo not drawn) | - | -16.7% | - | - |
| 30 | `COc1ccccc1[S+]([O-])CC(=O)NCc1cc(F)cc(F)c1` (stereo not drawn) | 1.55% | 1.765% | -44.89% | -10.1% |
| 31 | `CCOc1ncccc1C(=O)N1CCCCC1c1nccs1` (stereo not drawn) | 3.504% | 2.616% | 6.959% | 14.31% |
| 32 | `CN(C)C(=O)CCCS(=O)(=O)Cc1cc(Cl)c2c(c1)OCO2` | 2.899% | -35.02% | -5.684% | -12.47% |
| 33 | `CC(C)OCCCNC(=O)CN1C=Nc2ccccc2S1(=O)=O` | -2.71% | -13.48% | 8.681% | 17.43% |
| 34 | `CC(=O)NCC(=O)N1Cc2cc(-c3cc[nH]n3)ccc2C1c1cnco1` (stereo not drawn) | -0.3776% | -4.849% | -6.138% | -47.37% |
| 35 | `Cc1nc[nH]c1CN1C[C@@H]2CC[C@H](C1)N(C(=O)CCn1cncn1)C2` | - | -15.06% | - | - |
| 36 | `COc1ccc(CNCCn2c(C)nc3ccccc32)cc1O` | 11.21% | 1.035% | 10.72% | -17.98% |
| 37 | `CC(C)CN1CC(c2nc(C3CC3)n[nH]2)CC1=O` (stereo not drawn) | 6.343% | 1.224% | 25.29% | -6.821% |
| 38 | `O=C(CCn1cc(Cl)cn1)Nc1ccc2c(c1)OCCO2` | 4.994% | -6.344% | 36.71% | -17.81% |

4 of the entries, repeated:

compound,A,B,C,D
[H][C@]12CCC[C@@H](CN3CCCC3)[C@@]1([H])CN(c1ncccn1)C2,1.866%,-,13.31%,-16.19%
CC(C)N(Cc1ccccc1)Cc1csc(-c2ncccn2)n1,7.436%,7.43%,-7.207%,-43.3%
Cc1noc(C)c1CN(C)Cc1nc(N)c2ccccc2n1,5.871%,-0.9376%,3.181%,-77.23%
CN(Cc1cnn(C)c1)C(=O)C1COc2ccccc2C1 (stereo not drawn),6.859%,-9.925%,29.88%,0.3934%